Data on one molecule can be found in article PMC11458857.

Chains of the proteins cited; added tags and fusions are not shown.
UniProt Q99MQ3: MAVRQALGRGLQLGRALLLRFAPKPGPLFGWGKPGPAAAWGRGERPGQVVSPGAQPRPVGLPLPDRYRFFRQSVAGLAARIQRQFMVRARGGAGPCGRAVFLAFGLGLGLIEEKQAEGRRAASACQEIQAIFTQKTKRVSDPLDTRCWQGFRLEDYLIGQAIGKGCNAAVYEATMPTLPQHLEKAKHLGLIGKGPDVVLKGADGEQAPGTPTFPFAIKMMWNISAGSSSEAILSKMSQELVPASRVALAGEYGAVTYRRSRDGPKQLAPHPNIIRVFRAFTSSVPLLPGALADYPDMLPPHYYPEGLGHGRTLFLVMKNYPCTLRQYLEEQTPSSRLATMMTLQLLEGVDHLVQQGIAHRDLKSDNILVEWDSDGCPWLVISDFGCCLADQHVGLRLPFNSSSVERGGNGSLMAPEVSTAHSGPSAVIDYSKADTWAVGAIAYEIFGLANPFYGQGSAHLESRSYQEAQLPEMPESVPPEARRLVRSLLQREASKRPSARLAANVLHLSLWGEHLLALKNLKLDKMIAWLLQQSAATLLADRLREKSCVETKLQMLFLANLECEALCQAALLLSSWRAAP

This assay has as its target PTEN-induced putative kinase 1 (UniProt Q99MQ3). Briefly: co-IP; co-immunoprecipitation of BCAP31 and PINK1, with and without LPS treatment; cells, bait and antibodies not stated.

Results are given in words; binding and its absence hold for the method and conditions named. Binding seen in cells or lysates may run through a third protein. Some results given as binding are weak or reduced against the parent protein; the word gives no strength.

B1: B-cell receptor-associated protein 31 (protein, UniProt Q61335 1-245)
chain: MSLQWTTVATFLYAEVFAVLLLCIPFISPKRWQKVFKSRLVELVVTYGNTFFVVLIVILVLLVIDAVREILKYDDVTEKVNLQNNPGAMEHFHMKLFRAQRNLYIAGFSLLLSFLLRRLVTLISQQATLLASNEAFKKQAESASEAAKKYMEENDQLKKGAAEDGDKLDIGNTEMKLEENKSLKNDLRKLKDELASTKKKLEKAENEALAMQKQSEGLTKEYDRLLEEHAKLQASVRGPSVKKEE
Regarding B1, the binding result is recorded as “binds”.
